In the assay the target is brain and muscle Arnt-like protein 1 (BMAL1) (human (endogenous in SH-SY5Y)) (UniProt O00327). The experiment in a line: co-IP; SH-SY5Y cell lysates 24 h after 6-OHDA treatment (control, 6-OHDA, resveratrol pretreatment + 6-OHDA); anti-BMAL1 antibody overnight at 4°C, protein A/G-agarose beads 2 h at room temperature, washed with PBS; blot for CRY1 and BMAL1.

Sequences of proteins named here, by UniProt entry; tags and fusion partners are left off.
UniProt O00327: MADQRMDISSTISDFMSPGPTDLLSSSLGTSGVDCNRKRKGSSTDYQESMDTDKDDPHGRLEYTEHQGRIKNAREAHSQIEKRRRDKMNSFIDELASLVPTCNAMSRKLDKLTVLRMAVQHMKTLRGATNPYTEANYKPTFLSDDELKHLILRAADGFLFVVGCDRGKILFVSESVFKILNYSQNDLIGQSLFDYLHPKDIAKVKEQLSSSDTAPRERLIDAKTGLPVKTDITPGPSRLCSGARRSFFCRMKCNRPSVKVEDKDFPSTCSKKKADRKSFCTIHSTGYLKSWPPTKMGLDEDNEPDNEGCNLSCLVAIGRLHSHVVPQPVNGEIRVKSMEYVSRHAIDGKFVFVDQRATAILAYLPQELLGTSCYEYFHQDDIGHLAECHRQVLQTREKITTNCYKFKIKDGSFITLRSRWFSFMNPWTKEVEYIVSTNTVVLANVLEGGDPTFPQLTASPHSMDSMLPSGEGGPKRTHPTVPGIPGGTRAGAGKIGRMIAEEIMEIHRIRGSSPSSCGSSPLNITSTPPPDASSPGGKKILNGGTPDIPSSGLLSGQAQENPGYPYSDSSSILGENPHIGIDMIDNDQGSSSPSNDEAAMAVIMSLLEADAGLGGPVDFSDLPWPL

No constants are given. Whether binding was seen depends on the method and setting. In cells and extracts the contact can be indirect. Some results given as binding are weak or reduced against the parent protein; the word gives no strength.

B1: cryptochrome 1 (CRY1) (protein, UniProt Q16526 1-586)
chain: MGVNAVHWFRKGLRLHDNPALKECIQGADTIRCVYILDPWFAGSSNVGINRWRFLLQCLEDLDANLRKLNSRLFVIRGQPADVFPRLFKEWNITKLSIEYDSEPFGKERDAAIKKLATEAGVEVIVRISHTLYDLDKIIELNGGQPPLTYKRFQTLISKMEPLEIPVETITSEVIEKCTTPLSDDHDEKYGVPSLEELGFDTDGLSSAVWPGGETEALTRLERHLERKAWVANFERPRMNANSLLASPTGLSPYLRFGCLSCRLFYFKLTDLYKKVKKNSSPPLSLYGQLLWREFFYTAATNNPRFDKMEGNPICVQIPWDKNPEALAKWAEGRTGFPWIDAIMTQLRQEGWIHHLARHAVACFLTRGDLWISWEEGMKVFEELLLDADWSINAGSWMWLSCSSFFQQFFHCYCPVGFGRRTDPNGDYIRRYLPVLRGFPAKYIYDPWNAPEGIQKVAKCLIGVNYPKPMVNHAEASRLNIERMKQIYQQLSRYRGLGLLASVPSNPNGNGGFMGYSAENIPGCSSSGSCSQGSGILHYAHGDSQQTHLLKQGRSSMGTGLSGGKRPSQEEDTQSIGPKVQRQSTN
Regarding B1, the binding entry was “binds”.

For the origin of these results see PMC5932489.
